Data source: PubChem BioAssay AID1259254 (NCATS, 2017)

- Screen: 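Finding genes that stop cells copying their DNA twice in one cycle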 (primary screen)
- System: human HCT116 colorectal cancer cells
- Reagent: single siRNA against human genes
- Timing: 3 days
- Detection: 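Imaged Hoechst DNA stain sorts each cell into a cycle phase by DNA amount; per plate, G2 fraction set to 0% for non-targeting and 100% for GMNN siRNA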
- Direction: G2 robust z-score and G2 cells, % of GMNN control: higher = more G2 cells, more excess DNA replication
- Hit rule: 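Active siRNAs have a G2 robust z of 5 or more median absolute deviations over the median, which in these data means about 38% or higher of GMNN control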
Here is a random part of about 59,000 deposited reagents. Of all reagents, about 1,550 (2.6%) got an active call. 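G2 share is only a proxy for re-replication; each gene was hit by three separate siRNAs, and active genes were retested.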 Entries without a mark were called inactive. The numbers tell different reagents against one gene apart. Further read-outs or replicates are left out here. The record does not give: the amount of reagent.

Target gene | reagent | G2 robust z-score | G2 cells, % of GMNN control
FOXD4L4 | 1 | 1.94 | 16.6
FOXD4L4 | 2 | 1.02 | 10.2
FOXD4L4 | 3 | -0.275 | 1.03
SNAP47 | 1 | -0.338 | 0.59
SNAP47 | 2 | -0.118 | 2.14
SNAP47 | 3 | -0.623 | -1.41
STX12 | 1 | -0.281 | 0.989
STX12 | 2 | -0.823 | -2.83
STX12 | 3 | 0.271 | 4.88
KMT5C | 1 | -0.796 | -2.64
KMT5C | 2 | -0.258 | 1.15
KMT5C | 3 | 1.55 | 13.9
NOP2 | 1 | 1.55 | 13.9
NOP2 | 2 | 0.954 | 9.68
NOP2 | 3 | -0.13 | 2.05
FAM133A | 1 | -0.972 | -3.87
FAM133A | 2 | -1.02 | -4.24
FAM133A | 3 | -0.59 | -1.19
TUBA1C | 1 | 5.03 (active) | 38.4
TUBA1C | 2 | -0.332 | 0.634
TUBA1C | 3 | 0.717 | 8.01
CFAP300 | 1 | 4.97 | 37.9
CFAP300 | 2 | -0.809 | -2.72
CFAP300 | 3 | 1.16 | 11.1
CRLF2 | 1 | -0.641 | -1.54
CRLF2 | 2 | 0.143 | 3.97
CRLF2 | 3 | 1.81 | 15.7

Reagents listed so far marked active, once more:
Target gene | reagent | G2 robust z-score | G2 cells, % of GMNN control
TUBA1C | 1 | 5.03 (active) | 38.4

Continued.
Target gene | reagent | G2 robust z-score | G2 cells, % of GMNN control
TSBP1 | 1 | 0.796 | 8.57
TSBP1 | 2 | 0.76 | 8.31
TSBP1 | 3 | 0.104 | 3.7
ACTL6B | 1 | -1.08 | -4.6
ACTL6B | 2 | -0.867 | -3.14
ACTL6B | 3 | -0.646 | -1.58
SLC66A2 | 1 | 0.286 | 4.98
SLC66A2 | 2 | 1.19 | 11.3
SLC66A2 | 3 | 0.513 | 6.58
LAMA3 | 1 | -0.498 | -0.535
LAMA3 | 2 | 1.3 | 12.1
LAMA3 | 3 | -0.477 | -0.389
SULT1C2 | 1 | -1.03 | -4.29
SULT1C2 | 2 | 5.53 (active) | 41.9
SULT1C2 | 3 | -0.751 | -2.31
RAD23B | 1 | 0.961 | 9.73
RAD23B | 2 | -1.21 | -5.56
RAD23B | 3 | -0.5 | -0.554
MYOZ2 | 1 | -0.88 | -3.22
MYOZ2 | 2 | -0.388 | 0.239
MYOZ2 | 3 | -0.519 | -0.686
